No constants are given. Whether binding was seen depends on the method and setting. Some entries that bind do so weakly or less than the wild type.
B1: MAP3K6 (enzyme, UniProt O95382 1-1288)
chain: MAGPCPRSGAERAGSCWQDPLAVALSRGRQLAAPPGRGCARSRPLSVVYVLTREPQPGLEPREGTEAEPLPLRCLREACAQVPRPRPPPQLRSLPFGTLELGDTAALDAFYNADVVVLEVSSSLVQPSLFYHLGVRESFSMTNNVLLCSQADLPDLQALREDVFQKNSDCVGSYTLIPYVVTATGRVLCGDAGLLRGLADGLVQAGVGTEALLTPLVGRLARLLEATPTDSCGYFRETIRRDIRQARERFSGPQLRQELARLQRRLDSVELLSPDIIMNLLLSYRDVQDYSAIIELVETLQALPTCDVAEQHNVCFHYTFALNRRNRPGDRAKALSVLLPLVQLEGSVAPDLYCMCGRIYKDMFFSSGFQDAGHREQAYHWYRKAFDVEPSLHSGINAAVLLIAAGQHFEDSKELRLIGMKLGCLLARKGCVEKMQYYWDVGFYLGAQILANDPTQVVLAAEQLYKLNAPIWYLVSVMETFLLYQHFRPTPEPPGGPPRRAHFWLHFLLQSCQPFKTACAQGDQCLVLVLEMNKVLLPAKLEVRGTDPVSTVTLSLLEPETQDIPSSWTFPVASICGVSASKRDERCCFLYALPPAQDVQLCFPSVGHCQWFCGLIQAWVTNPDSTAPAEEAEGAGEMLEFDYEYTETGERLVLGKGTYGVVYAGRDRHTRVRIAIKEIPERDSRFSQPLHEEIALHRRLRHKNIVRYLGSASQGGYLKIFMEEVPGGSLSSLLRSVWGPLKDNESTISFYTRQILQGLGYLHDNHIVHRDIKGDNVLINTFSGLLKISDFGTSKRLAGITPCTETFTGTLQYMAPEIIDQGPRGYGKAADIWSLGCTVIEMATGRPPFHELGSPQAAMFQVGMYKVHPPMPSSLSAEAQAFLLRTFEPDPRLRASAQTLLGDPFLQPGKRSRSPSSPRHAPRPSDAPSASPTPSANSTTQSQTFPCPQAPSQHPPSPPKRCLSYGGTSQLRVPEEPAAEEPASPEESSGLSLLHQESKRRAMLAAVLEQELPALAENLHQEQKQEQGARLGRNHVEELLRCLGAHIHTPNRRQLAQELRALQGRLRAQGLGPALLHRPLFAFPDAVKQILRKRQIRPHWMFVLDSLLSRAVRAALGVLGPEVEKEAVSPRSEELSNEGDSQQSPGQQSPLPVEPEQGPAPLMVQLSLLRAETDRLREILAGKEREYQALVQRALQRLNEEARTYVLAPEPPTALSTDQGLVQWLQELNVDSGTIQMLLNHSFTLHTLLTYATRDDLIYTRIRGGMVCRIWRAILAQRAGSTPVTSGP
B2: SGK3 (enzyme, UniProt Q96BR1 1-496)
chain: MQRDHTMDYKESCPSVSIPSSDEHREKKKRFTVYKVLVSVGRSEWFVFRRYAEFDKLYNTLKKQFPAMALKIPAKRIFGDNFDPDFIKQRRAGLNEFIQNLVRYPELYNHPDVRAFLQMDSPKHQSDPSEDEDERSSQKLHSTSQNINLGPSGNPHAKPTDFDFLKVIGKGSFGKVLLAKRKLDGKFYAVKVLQKKIVLNRKEQKHIMAERNVLLKNVKHPFLVGLHYSFQTTEKLYFVLDFVNGGELFFHLQRERSFPEHRARFYAAEIASALGYLHSIKIVYRDLKPENILLDSVGHVVLTDFGLCKEGIAISDTTTTFCGTPEYLAPEVIRKQPYDNTVDWWCLGAVLYEMLYGLPPFYCRDVAEMYDNILHKPLSLRPGVSLTAWSILEELLEKDRQNRLGAKEDFLEIQNHPFFESLSWADLVQKKIPPPFNPNVAGPDDIRNFDTAFTEETVPYSVCVSSDYSIVNASVLEADDAFVGFSYAPPSEDLFL

Chains of the proteins cited; added tags and fusions are not shown.
UniProt P08238: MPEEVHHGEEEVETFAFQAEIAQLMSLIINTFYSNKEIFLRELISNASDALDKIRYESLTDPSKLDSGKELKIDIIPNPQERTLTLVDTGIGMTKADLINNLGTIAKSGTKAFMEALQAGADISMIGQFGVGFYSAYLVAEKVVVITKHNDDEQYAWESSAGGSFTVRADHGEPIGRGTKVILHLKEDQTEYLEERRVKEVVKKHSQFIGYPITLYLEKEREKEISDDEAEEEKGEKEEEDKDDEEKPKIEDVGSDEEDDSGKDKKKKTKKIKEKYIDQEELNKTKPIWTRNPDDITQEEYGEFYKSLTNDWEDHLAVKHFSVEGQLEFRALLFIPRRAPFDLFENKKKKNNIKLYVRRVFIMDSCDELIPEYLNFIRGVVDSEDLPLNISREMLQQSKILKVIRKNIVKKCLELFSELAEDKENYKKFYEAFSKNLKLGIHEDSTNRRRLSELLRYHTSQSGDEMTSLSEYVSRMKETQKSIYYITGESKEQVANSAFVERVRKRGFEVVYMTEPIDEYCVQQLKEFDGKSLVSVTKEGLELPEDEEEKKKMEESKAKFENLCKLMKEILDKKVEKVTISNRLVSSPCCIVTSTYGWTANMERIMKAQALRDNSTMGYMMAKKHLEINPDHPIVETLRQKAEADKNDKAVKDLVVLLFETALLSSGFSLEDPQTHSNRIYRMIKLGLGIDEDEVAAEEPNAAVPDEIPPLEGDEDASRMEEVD
UniProt Q13546: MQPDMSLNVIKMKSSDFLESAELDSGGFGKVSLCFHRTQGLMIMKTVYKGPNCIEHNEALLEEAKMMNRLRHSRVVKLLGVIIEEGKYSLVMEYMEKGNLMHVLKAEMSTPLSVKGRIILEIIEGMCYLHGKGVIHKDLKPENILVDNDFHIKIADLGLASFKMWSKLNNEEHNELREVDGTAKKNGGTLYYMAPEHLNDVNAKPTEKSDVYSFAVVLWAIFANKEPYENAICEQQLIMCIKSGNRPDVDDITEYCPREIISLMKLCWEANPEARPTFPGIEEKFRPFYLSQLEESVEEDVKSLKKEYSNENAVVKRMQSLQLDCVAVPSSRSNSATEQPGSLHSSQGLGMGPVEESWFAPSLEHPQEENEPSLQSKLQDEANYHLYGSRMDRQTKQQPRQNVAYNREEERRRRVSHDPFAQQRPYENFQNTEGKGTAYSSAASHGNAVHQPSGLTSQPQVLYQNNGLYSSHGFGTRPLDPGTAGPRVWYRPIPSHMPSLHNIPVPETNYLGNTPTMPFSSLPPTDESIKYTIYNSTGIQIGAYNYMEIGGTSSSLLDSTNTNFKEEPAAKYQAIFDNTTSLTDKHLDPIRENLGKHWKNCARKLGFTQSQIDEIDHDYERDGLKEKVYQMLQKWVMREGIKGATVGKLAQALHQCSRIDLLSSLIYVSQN

Each molecule was assayed against Renilla-HSP90β (UniProt P08238) (assay: LUMIER; HEK293T cells stably expressing Renilla-HSP90β, transfected with 1 of 420 protein kinases, treated with 10 µM KBU2046 or vehicle for 3 days; repeated for 17 kinases with TGFβ treatment).

| binding | Molecule |
| --- | --- |
| binds | RIPK1 (from UniProt Q13546 1-671) (enzyme) |
| binds | B1 |
| binds | B2 |

— article PMC6014988, “Precision therapeutic targeting of human cancer cell motility” (Nature Communications, 2018)
